Experimental data: PubChem BioAssay AID652272 (Drosophila RNAi Screening Center, 2013)
The screen tested about 21,000 reagents; shown is an unselected part of those with a known target gene and a result. Over the whole deposit, 503 (2.4%) got an active call. 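Raw plate light values, not normalised; calls rest on replicate z-scores that were not deposited; hits include reporter decreases as well as increases.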 Reagents against one gene are numbered here. A plus sign joins genes that one reagent is predicted to hit. Reagent sequences are not shown. The record does not give: the amount of reagent, the time to read-out.

Test: 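Genome-wide knock-down search for components of Hedgehog signalling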 (primary screen)
Cell system: Drosophila clone 8 (Cl8) cells
Knock-down reagent: long dsRNA against Drosophila genes
Read-out: 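Plate reader light from a firefly reporter under a ptc promoter fragment that responds to Hedgehog, with Renilla light as transfection reference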
Direction: firefly Hh reporter signal: higher = more ptc reporter light; Renilla reference signal: higher = more Renilla control light
Hit rule: 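Called a hit if the two-replicate mean z-score lies below -2 or above +3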
Calls: active = hit: reporter lowered or raised; inactive = not a hit

CG1532 (GeneID 33076) | firefly Hh reporter signal, replicate 1: 1.19e5; firefly Hh reporter signal, replicate 2: 1.06e5; Renilla reference signal, replicate 1: 2955; Renilla reference signal, replicate 2: 2477; activity call: inactive
CG10164 (GeneID 42777) | firefly Hh reporter signal, replicate 1: 3.80e5; firefly Hh reporter signal, replicate 2: 77756; Renilla reference signal, replicate 1: 2951; Renilla reference signal, replicate 2: 2951; activity call: inactive
DopEcR (GeneID 38539) | firefly Hh reporter signal, replicate 1: 1.05e5; firefly Hh reporter signal, replicate 2: 50657; Renilla reference signal, replicate 1: 4371; Renilla reference signal, replicate 2: 2040; activity call: inactive
CG6034 (GeneID 39974) | firefly Hh reporter signal, replicate 1: 1.09e5; Renilla reference signal, replicate 1: 4388; Renilla reference signal, replicate 2: 2912; activity call: inactive
CG10631 (GeneID 35262) | firefly Hh reporter signal, replicate 1: 1.14e5; firefly Hh reporter signal, replicate 2: 79351; Renilla reference signal, replicate 1: 4480; Renilla reference signal, replicate 2: 3664; activity call: inactive
MstProx + Mst84Da | firefly Hh reporter signal, replicate 1: 95526; firefly Hh reporter signal, replicate 2: 1.14e5; Renilla reference signal, replicate 1: 3283; Renilla reference signal, replicate 2: 3334; activity call: inactive
CG14406 (GeneID 32421) | firefly Hh reporter signal, replicate 1: 90037; firefly Hh reporter signal, replicate 2: 1.71e5; Renilla reference signal, replicate 1: 1697; Renilla reference signal, replicate 2: 6976; activity call: inactive
CG31029 (GeneID 318562) | firefly Hh reporter signal, replicate 1: 75357; firefly Hh reporter signal, replicate 2: 68842; Renilla reference signal, replicate 1: 2568; Renilla reference signal, replicate 2: 808; activity call: inactive
CG7810 (GeneID 34139) | firefly Hh reporter signal, replicate 1: 55693; firefly Hh reporter signal, replicate 2: 89233; Renilla reference signal, replicate 1: 2316; Renilla reference signal, replicate 2: 3445; activity call: inactive
CG6933 (GeneID 40214) | firefly Hh reporter signal, replicate 1: 93121; firefly Hh reporter signal, replicate 2: 1.21e5; Renilla reference signal, replicate 1: 4024; Renilla reference signal, replicate 2: 4928; activity call: inactive
CG10562 (GeneID 43066) | firefly Hh reporter signal, replicate 1: 92250; firefly Hh reporter signal, replicate 2: 1.68e5; Renilla reference signal, replicate 1: 1401; Renilla reference signal, replicate 2: 3735; activity call: inactive
Sap-r (GeneID 43662) | firefly Hh reporter signal, replicate 1: 1.57e5; firefly Hh reporter signal, replicate 2: 9.31e5; firefly Hh reporter signal, replicate 3: 1.46e5; Renilla reference signal, replicate 1: 2988; Renilla reference signal, replicate 2: 5872; activity call: inactive
mAChR-B (GeneID 40955) | firefly Hh reporter signal, replicate 1: 68791; firefly Hh reporter signal, replicate 2: 1.13e5; Renilla reference signal, replicate 1: 2864; Renilla reference signal, replicate 2: 3216; activity call: inactive
CG7458 (GeneID 40441) | firefly Hh reporter signal, replicate 1: 1.37e5; firefly Hh reporter signal, replicate 2: 5.78e5; firefly Hh reporter signal, replicate 3: 1.81e5; Renilla reference signal, replicate 1: 4521; Renilla reference signal, replicate 2: 3533; activity call: inactive
CG11380 (GeneID 31065) | firefly Hh reporter signal, replicate 1: 57013; firefly Hh reporter signal, replicate 2: 41160; Renilla reference signal, replicate 1: 4067; Renilla reference signal, replicate 2: 1920; activity call: active
CAH15 (GeneID 37366) | firefly Hh reporter signal, replicate 1: 86157; firefly Hh reporter signal, replicate 2: 53287; Renilla reference signal, replicate 1: 2361; Renilla reference signal, replicate 2: 4584; activity call: inactive
atos (GeneID 36243) | firefly Hh reporter signal, replicate 1: 1.17e5; firefly Hh reporter signal, replicate 2: 47689; Renilla reference signal, replicate 1: 2807; Renilla reference signal, replicate 2: 3569; activity call: inactive
CG5790 (GeneID 35095) | firefly Hh reporter signal, replicate 1: 71798; firefly Hh reporter signal, replicate 2: 96131; Renilla reference signal, replicate 1: 2821; Renilla reference signal, replicate 2: 3703; activity call: inactive
mdlc (GeneID 42397) | firefly Hh reporter signal, replicate 1: 67380; firefly Hh reporter signal, replicate 2: 67900; Renilla reference signal, replicate 1: 1893; Renilla reference signal, replicate 2: 2641; activity call: inactive
CG7992 (GeneID 32917) | firefly Hh reporter signal, replicate 1: 72784; firefly Hh reporter signal, replicate 2: 1.48e5; Renilla reference signal, replicate 1: 2144; Renilla reference signal, replicate 2: 6179; activity call: inactive
CG11902 (GeneID 43070) | firefly Hh reporter signal, replicate 1: 7.59e5; firefly Hh reporter signal, replicate 2: 1.20e5; Renilla reference signal, replicate 1: 53848; Renilla reference signal, replicate 2: 3362; activity call: inactive
CG5934 (GeneID 43289) | firefly Hh reporter signal, replicate 1: 85303; firefly Hh reporter signal, replicate 2: 1.09e5; Renilla reference signal, replicate 1: 2827; Renilla reference signal, replicate 2: 3403; activity call: inactive
CG6785 (GeneID 34620) | firefly Hh reporter signal, replicate 1: 60465; firefly Hh reporter signal, replicate 2: 46466; Renilla reference signal, replicate 1: 3110; Renilla reference signal, replicate 2: 2144; activity call: inactive
pix (GeneID 39027) | firefly Hh reporter signal, replicate 1: 15913; firefly Hh reporter signal, replicate 2: 31569; Renilla reference signal, replicate 1: 3554; Renilla reference signal, replicate 2: 2951; activity call: inactive
CG18336 (GeneID 50236) | firefly Hh reporter signal, replicate 1: 1.00e5; firefly Hh reporter signal, replicate 2: 43991; Renilla reference signal, replicate 1: 2829; Renilla reference signal, replicate 2: 3648; activity call: inactive
Dpp10 (GeneID 33923) #1 | firefly Hh reporter signal, replicate 1: 6.03e5; firefly Hh reporter signal, replicate 2: 1.53e5; Renilla reference signal, replicate 1: 28441; Renilla reference signal, replicate 2: 6090; activity call: inactive
Dpp10 (GeneID 33923) #2 | firefly Hh reporter signal, replicate 1: 54228; firefly Hh reporter signal, replicate 2: 56922; Renilla reference signal, replicate 1: 1261; Renilla reference signal, replicate 2: 5831; activity call: inactive

A portion from the list above, for reference:
CG10164 (GeneID 42777) | firefly Hh reporter signal, replicate 1: 3.80e5; firefly Hh reporter signal, replicate 2: 77756; Renilla reference signal, replicate 1: 2951; Renilla reference signal, replicate 2: 2951; activity call: inactive
DopEcR (GeneID 38539) | firefly Hh reporter signal, replicate 1: 1.05e5; firefly Hh reporter signal, replicate 2: 50657; Renilla reference signal, replicate 1: 4371; Renilla reference signal, replicate 2: 2040; activity call: inactive
